# In the supplement of paper PMC11732987, “Enantioselective OTUD7B fragment discovery through chemoproteomics screening and high-throughput optimisation” (Communications Chemistry, 2025):
# Amino acid sequences for entries named in this document (tags omitted). A change or cut given only in a name is not applied to a line headed by its entry. Residues count along the entry.
# UniProt Q96QE2: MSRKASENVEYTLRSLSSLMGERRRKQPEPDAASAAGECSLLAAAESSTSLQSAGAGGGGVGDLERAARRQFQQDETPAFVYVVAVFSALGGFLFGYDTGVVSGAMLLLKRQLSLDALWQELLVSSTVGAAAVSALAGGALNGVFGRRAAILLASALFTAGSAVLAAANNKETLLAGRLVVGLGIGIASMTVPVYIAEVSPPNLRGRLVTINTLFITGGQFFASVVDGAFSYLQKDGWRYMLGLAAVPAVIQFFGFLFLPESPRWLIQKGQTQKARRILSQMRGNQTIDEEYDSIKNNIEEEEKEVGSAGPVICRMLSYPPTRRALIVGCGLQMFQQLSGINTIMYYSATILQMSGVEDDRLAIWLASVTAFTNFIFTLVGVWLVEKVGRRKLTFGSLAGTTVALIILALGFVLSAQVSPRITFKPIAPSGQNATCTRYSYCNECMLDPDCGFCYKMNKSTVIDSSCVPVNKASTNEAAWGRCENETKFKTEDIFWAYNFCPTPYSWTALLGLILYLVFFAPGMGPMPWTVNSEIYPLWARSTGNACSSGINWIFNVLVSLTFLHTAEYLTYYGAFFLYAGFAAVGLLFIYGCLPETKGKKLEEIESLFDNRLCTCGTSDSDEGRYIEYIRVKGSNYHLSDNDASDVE
# UniProt Q15599, 241-274: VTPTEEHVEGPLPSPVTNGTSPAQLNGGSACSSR
# UniProt O75643: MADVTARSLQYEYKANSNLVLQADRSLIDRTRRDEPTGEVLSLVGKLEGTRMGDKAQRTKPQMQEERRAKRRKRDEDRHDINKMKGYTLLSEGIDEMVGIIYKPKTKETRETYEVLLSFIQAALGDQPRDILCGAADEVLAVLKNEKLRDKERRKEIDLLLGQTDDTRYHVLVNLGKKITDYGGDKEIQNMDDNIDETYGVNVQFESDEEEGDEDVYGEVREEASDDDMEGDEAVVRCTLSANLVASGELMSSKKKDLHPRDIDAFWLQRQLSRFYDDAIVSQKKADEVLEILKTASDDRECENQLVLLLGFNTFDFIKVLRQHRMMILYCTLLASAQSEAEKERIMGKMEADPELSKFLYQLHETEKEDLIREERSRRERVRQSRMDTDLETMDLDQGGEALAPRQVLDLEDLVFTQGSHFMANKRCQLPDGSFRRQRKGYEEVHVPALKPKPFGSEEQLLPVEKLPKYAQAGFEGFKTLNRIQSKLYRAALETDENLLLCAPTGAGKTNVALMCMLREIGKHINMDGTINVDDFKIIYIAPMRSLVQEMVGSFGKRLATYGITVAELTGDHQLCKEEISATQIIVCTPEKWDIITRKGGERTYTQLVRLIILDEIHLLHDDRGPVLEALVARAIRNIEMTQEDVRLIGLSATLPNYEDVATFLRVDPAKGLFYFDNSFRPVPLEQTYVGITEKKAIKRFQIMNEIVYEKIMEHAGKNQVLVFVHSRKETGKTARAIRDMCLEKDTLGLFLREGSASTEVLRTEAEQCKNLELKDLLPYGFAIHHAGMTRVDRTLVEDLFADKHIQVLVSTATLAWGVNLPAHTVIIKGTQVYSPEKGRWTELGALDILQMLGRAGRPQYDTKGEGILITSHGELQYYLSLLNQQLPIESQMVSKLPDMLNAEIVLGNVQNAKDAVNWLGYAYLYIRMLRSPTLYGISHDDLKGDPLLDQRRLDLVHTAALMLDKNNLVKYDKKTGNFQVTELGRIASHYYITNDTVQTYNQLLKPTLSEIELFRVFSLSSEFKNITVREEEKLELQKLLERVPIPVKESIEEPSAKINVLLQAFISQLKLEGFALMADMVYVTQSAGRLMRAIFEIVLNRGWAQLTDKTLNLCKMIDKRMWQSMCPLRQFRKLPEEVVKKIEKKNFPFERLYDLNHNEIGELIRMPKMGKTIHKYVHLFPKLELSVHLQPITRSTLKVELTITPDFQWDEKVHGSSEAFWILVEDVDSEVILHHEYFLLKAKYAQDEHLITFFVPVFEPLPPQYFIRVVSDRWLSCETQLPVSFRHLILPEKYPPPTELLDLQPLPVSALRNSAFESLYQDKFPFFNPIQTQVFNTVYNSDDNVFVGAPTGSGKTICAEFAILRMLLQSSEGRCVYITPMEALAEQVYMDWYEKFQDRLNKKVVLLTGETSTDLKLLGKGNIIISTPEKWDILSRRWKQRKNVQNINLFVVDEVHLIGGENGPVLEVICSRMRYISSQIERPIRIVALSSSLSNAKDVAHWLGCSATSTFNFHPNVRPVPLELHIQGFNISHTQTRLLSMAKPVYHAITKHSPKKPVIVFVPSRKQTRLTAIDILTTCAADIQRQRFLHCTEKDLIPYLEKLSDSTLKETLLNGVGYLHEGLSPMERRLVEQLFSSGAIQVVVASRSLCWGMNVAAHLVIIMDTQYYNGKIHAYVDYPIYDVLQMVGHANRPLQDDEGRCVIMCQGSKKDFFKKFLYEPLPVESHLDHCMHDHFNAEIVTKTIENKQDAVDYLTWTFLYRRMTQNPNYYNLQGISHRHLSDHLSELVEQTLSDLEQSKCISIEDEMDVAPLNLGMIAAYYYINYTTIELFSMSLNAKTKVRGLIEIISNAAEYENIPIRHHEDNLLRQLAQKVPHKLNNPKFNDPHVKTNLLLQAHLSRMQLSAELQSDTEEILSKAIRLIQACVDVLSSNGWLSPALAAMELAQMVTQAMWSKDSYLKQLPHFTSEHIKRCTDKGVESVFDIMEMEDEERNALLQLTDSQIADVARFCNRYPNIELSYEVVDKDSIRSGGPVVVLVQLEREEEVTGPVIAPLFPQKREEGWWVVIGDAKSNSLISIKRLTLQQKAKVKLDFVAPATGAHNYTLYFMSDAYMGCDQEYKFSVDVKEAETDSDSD
# UniProt P53794: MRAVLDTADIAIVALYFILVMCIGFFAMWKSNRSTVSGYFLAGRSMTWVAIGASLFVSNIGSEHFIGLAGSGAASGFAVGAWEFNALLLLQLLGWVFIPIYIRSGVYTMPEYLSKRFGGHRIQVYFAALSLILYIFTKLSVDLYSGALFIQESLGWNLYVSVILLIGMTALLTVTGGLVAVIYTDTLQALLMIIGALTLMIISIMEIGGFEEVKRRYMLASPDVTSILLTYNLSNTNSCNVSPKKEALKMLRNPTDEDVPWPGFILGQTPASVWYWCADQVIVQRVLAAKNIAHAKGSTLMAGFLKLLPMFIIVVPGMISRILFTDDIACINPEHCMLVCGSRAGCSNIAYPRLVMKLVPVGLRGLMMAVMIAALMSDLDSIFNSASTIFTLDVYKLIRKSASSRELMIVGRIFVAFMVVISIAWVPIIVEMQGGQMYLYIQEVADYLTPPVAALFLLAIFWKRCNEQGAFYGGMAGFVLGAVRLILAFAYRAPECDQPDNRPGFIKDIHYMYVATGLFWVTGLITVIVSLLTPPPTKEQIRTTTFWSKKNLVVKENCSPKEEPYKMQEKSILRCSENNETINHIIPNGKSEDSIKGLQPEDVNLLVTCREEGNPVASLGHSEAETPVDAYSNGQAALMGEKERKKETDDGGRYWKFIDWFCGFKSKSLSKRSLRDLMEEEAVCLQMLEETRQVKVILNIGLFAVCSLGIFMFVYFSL
# UniProt Q9Y6M5: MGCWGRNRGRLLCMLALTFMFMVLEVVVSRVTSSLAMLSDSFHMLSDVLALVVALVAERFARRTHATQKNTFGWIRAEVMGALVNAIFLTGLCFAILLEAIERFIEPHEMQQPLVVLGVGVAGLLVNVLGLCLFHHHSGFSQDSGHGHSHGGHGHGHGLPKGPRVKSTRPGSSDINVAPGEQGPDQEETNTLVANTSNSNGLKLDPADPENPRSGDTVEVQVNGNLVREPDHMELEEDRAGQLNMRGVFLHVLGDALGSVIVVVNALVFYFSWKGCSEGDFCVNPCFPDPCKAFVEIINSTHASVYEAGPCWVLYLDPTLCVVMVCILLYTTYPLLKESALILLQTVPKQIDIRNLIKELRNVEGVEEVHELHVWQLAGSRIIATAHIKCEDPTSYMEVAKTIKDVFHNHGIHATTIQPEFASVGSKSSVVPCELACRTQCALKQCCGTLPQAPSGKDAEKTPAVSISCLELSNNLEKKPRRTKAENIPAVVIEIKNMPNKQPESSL
# UniProt Q9H936: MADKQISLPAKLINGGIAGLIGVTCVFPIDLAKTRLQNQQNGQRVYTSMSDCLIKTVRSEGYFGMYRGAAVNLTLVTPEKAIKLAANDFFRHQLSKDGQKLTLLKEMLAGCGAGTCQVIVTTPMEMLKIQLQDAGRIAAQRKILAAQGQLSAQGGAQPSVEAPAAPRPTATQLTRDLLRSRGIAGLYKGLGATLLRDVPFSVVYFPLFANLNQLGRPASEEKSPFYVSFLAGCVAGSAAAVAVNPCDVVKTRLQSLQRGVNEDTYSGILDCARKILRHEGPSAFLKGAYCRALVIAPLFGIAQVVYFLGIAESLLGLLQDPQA
# UniProt Q9HC21: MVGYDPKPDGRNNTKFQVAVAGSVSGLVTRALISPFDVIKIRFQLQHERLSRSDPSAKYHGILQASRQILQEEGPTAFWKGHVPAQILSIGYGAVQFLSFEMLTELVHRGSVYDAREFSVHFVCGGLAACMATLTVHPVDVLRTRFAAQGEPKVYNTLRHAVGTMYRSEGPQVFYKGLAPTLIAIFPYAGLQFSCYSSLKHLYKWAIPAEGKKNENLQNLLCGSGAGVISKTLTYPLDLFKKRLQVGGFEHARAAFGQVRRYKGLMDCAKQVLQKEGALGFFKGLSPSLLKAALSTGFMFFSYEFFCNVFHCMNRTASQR
# UniProt Q07617: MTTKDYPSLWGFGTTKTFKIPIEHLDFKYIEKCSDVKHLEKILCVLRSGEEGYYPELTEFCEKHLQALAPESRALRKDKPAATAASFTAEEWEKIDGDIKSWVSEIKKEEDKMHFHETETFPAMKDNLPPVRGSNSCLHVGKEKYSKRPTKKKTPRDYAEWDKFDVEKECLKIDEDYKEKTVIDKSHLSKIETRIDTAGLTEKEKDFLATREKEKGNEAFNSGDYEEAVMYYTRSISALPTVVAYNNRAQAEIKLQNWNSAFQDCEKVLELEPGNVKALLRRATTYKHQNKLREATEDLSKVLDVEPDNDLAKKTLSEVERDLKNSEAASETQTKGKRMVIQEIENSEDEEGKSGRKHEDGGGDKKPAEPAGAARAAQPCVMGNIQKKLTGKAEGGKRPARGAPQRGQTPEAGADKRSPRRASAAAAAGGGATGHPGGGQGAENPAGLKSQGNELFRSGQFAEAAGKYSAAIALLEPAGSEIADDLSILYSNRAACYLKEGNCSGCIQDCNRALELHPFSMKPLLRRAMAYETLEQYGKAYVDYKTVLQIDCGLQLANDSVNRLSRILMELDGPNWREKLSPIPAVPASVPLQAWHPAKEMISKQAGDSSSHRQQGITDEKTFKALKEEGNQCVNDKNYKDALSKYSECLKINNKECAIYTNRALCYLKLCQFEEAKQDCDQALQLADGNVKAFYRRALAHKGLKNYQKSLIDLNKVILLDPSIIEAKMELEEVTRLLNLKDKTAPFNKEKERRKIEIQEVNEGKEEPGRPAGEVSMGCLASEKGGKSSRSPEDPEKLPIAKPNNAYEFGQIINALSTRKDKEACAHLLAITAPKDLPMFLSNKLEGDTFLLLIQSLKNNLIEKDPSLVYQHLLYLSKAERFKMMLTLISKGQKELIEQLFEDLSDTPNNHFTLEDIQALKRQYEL
# UniProt Q8ND83, 310-338: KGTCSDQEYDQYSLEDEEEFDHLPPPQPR
# UniProt Q9Y5X3: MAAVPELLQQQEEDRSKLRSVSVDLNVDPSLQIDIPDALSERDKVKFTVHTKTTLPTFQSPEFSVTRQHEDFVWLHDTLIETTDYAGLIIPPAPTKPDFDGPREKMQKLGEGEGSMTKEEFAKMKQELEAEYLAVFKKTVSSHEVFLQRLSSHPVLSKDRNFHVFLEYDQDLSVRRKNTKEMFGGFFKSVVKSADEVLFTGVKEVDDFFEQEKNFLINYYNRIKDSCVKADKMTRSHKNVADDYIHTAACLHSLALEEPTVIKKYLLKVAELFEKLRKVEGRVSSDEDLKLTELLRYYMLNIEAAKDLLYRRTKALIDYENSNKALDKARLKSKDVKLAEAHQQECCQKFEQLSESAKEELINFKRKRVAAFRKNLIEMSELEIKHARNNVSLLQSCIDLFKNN
# UniProt P53007, whole entry, looked up: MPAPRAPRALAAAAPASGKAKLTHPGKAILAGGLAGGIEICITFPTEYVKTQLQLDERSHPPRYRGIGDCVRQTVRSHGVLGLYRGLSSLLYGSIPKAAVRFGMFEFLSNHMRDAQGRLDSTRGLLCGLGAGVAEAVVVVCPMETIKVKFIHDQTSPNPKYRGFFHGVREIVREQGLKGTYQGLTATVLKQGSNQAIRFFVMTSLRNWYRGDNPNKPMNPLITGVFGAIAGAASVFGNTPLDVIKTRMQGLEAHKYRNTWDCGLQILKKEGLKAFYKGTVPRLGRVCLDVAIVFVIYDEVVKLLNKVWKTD
# The other results are listed elsewhere or left out. The data scatter; read single values as rough.
# Compound: ClCC(=O)N[C@@H]1CCCc2ccccc12
# Assay: log2 mean competition ratio of IA-DTB cysteine labelling (DMSO/compound) (log2 ratio); higher = stronger cysteine engagement by compound
# Details: 50 µM; treatment time: 4 h; cell line lysate: HEK293T
# Procedure: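 IA-DTB competitive cysteine chemoproteomics in HEK293T RIPA lysate. Lysates were treated with compound 29 or 30 at 50 or 200 µM for 4 h, then IA-DTB (500 µM, 1 h), trypsin-digested, NeutrAvidin-enriched and analysed by diaPASEF. Competition ratio = intensity DMSO / intensity compound (n=4 treated, n=64 DMSO); binding: mean log2 CR ≥ 1 and p ≤ 0.05 plus QC filters. Target is the cysteine site.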
row,Target,log2 mean competition ratio
1,SMARCA2 C1296 (UniProt P51531),-0.188
2,SKP2 C423 (UniProt Q13309),-0.153
3,SLC2A13 C467 (UniProt Q96QE2),-0.22
4,SLIRP C48 (UniProt Q9GZT3),0.328
5,SLC9A3R2 C271 (UniProt Q15599),-0.23
6,SLMAP C286 (UniProt Q14BN4),-0.246
7,SLC1A1 C343,0.0248
8,SNRNP200 C1580 (UniProt O75643),-0.0879
9,SLC25A28 C49 (UniProt Q96A46),-0.141
10,SMG1 C3138 (UniProt Q96Q15),-0.0928
11,SLC5A3 C575 (UniProt P53794),-0.0838
12,SOX2 C265,-0.0969
13,SLC30A1 C469 (UniProt Q9Y6M5),-0.176
14,SLC25A22 C271 (UniProt Q9H936),-0.248
15,SLC25A19 C268 (UniProt Q9HC21),-0.0197
16,SPAG1 C380 (UniProt Q07617),0.195
17,SLAIN1 C313 (UniProt Q8ND83),0.155
18,SLC25A10 C240 (UniProt Q9UBX3),0.162
19,SNX5 C227 (UniProt Q9Y5X3),0.0126
20,SLC25A1 C262 (UniProt P53007),0.357

# Same assay, conditions: 200 µM; treatment time: 4 h; cell line lysate: HEK293T
row,Target,log2 mean competition ratio
1,SMARCA2 C1296 (UniProt P51531),-0.0991
2,SKP2 C423 (UniProt Q13309),0.0249
3,SLC2A13 C467 (UniProt Q96QE2),0.0371
4,SLIRP C48 (UniProt Q9GZT3),-0.0399
5,SLC9A3R2 C271 (UniProt Q15599),0.138
6,SLMAP C286 (UniProt Q14BN4),-0.0357
7,SLC1A1 C343,0.0287
8,SNRNP200 C1580 (UniProt O75643),-0.0898
9,SLC25A28 C49 (UniProt Q96A46),0.387
10,SMG1 C3138 (UniProt Q96Q15),0.0982
11,SLC5A3 C575 (UniProt P53794),0.151
12,SOX2 C265,0.18
13,SLC30A1 C469 (UniProt Q9Y6M5),0.297
14,SLC25A22 C271 (UniProt Q9H936),0.143
15,SLC25A19 C268 (UniProt Q9HC21),0.126
16,SPAG1 C380 (UniProt Q07617),0.0927
17,SLAIN1 C313 (UniProt Q8ND83),-0.024
18,SLC25A10 C240 (UniProt Q9UBX3),0.117
19,SNX5 C227 (UniProt Q9Y5X3),-0.0848
20,SLC25A1 C262 (UniProt P53007),0.137
